Experimental data published in PubChem BioAssay AID280 (DTP/NCI, 2004).
The list is a part of this screen's results and no random one: it is rich in T/C values a quarter to a half above the control, in often repeated tests (any T/C) and in doses without a T/C. Further doses and runs are listed elsewhere. T/C is the treated group as % of the vehicle group. Some entries give survivors of the animals treated and no T/C: the source files T/C as zero there, which appears to mark a toxic dose or a test without result, not a measured value. Some doses without a T/C left all or most animals alive at the check, yet need not have been tolerated: the source hardly ever lists a survival T/C far under the control, and the zero likely stands for such cases as well. Survivors were counted at the toxicity check, usually on the fifth day, unless a day is given; later deaths do not show. Schedules are NCI's codes, taken here to give the interval after Q, in days (D) or hours (H), and the number of doses after X. Some entries hold several experiments; the values are given in rising order. For survival time, the PubChem record calls one and a half times the control and up active, and a quarter to a half above the control has no call in these data; cut-offs in other NCI protocols can differ. Some T/C values carry the count of animals alive at the toxicity check (mostly the fifth day); where none is given, no animal had died by that day. Starred links: 1 amine or outer side, 2 acyl side, 3 side chain; linkers in the order of their positions; H or OH if unused. Positions of bridges follow the written chain, without caps; N, C: chain ends. Non-standard residues stand in square brackets, D forms with d. Residues, ends and D or L forms follow the SMILES beside them. Chains are numbered I, II in the order given. Actinocin(9to1) = Cc1c2oc3c(C)ccc(C(=O)[*:1])c3nc-2c(C(=O)[*:2])c(N)c1=O; aThr = C[C@H](O)[C@H](N)C(=O)O; NMeV = CN[C@H](C(=O)O)C(C)C; Sar = CNCC(=O)O

Tested on: nude mice, LOX melanoma ip, survival T/C
Assay: NCI In Vivo Anticancer Drug Screen. Data for tumor model Human Amelanotic Melanoma (LOX) (intraperitoneal) in NU/NU BALB/C (nude) mice
Settings: T/C endpoint: median survival time, higher T/C = longer survival
Description: The antitumor activity of compounds was measured in mice bearing transplantable tumors. Survival or tumor size were measured and the results are expressed as the measurement made in the treated group (T) divided by the measurement made in the vehicle treated control group (C). The tumor model used in this assay is Human Amelanotic Melanoma (LOX) (intraperitoneal) in NU/NU BALB/C (nude) mice

[1] = dose: 600.0 mg/kg/injection, schedule: Q04DX003 (ip), vehicle: Klucel (hydroxypropylcellulose) (HPC)
[2] = dose: 300.0 mg/kg/injection, schedule: Q04DX003 (ip), vehicle: Klucel (hydroxypropylcellulose) (HPC)

Compound: CNC(=O)c1cccc2c(Nc3ccc(NS(C)(=O)=O)cc3OC)c3cccc(C)c3nc12
- T/C (dose: 9.0 mg/kg/injection, schedule: Q04DX003 (ip), vehicle: suspension in saline): 147 % of control
- T/C (dose: 12.5 mg/kg/injection, schedule: Q04DX003 (ip), vehicle: suspension in saline): 144 % of control
- T/C (dose: 25.0 mg/kg/injection, schedule: Q04DX003 (ip), vehicle: suspension in saline): 148 % of control
- T/C (dose: 50.0 mg/kg/injection, schedule: Q04DX003 (ip), vehicle: suspension in saline): 149 % of control
- survivor count (dose: 100.0 mg/kg/injection, schedule: Q04DX003 (ip), vehicle: suspension in saline): 1 of 6 on day 10

Compound: CCCCCC[Se][Se]CCCCCC
- survivor count [1]: 0 of 6 on day 10

Compound: CCCCCNc1ncnc2c(C)[nH]nc12
- survivor count [2]: 2 of 6 on day 10

Compound: COc1cc2c(cc1OC)[C@@H]1C(=O)c3ccc4c(c3O[C@@H]1CO2)C[C@H](C(C)C)O4
- survivor count (dose: 75.0 mg/kg/injection, schedule: Q04DX003 (ip), vehicle: Klucel (hydroxypropylcellulose) (HPC)): 2 of 6 on day 10
- survivor count (dose: 150.0 mg/kg/injection, schedule: Q04DX003 (ip), vehicle: Klucel (hydroxypropylcellulose) (HPC)): 0 of 6 on day 10
- survivor count [2]: 0 of 6 on day 10

Compound: COc1cccc2c1C(=O)c1c(O)c3c(c(O)c1C2=O)C[C@](O)(C(=O)CO)CC3OC1CC(N)C(OC2CCCCO2)C(C)O1 (some centres undefined)
- T/C (dose: 1.88 mg/kg/injection, schedule: Q04DX003 (ip), vehicle: water): 139 % of control
- T/C (dose: 3.75 mg/kg/injection, schedule: Q04DX003 (ip), vehicle: water): 141 % of control

Compound: Cc1c2oc3c(C)ccc(C(=O)N[C@@H]4C(=O)N[C@H](C(C)C)C(=O)N5CCC[C@H]5C(=O)N(C)CC(=O)N(C)[C@@H](C(C)C)C(=O)O[C@H]4C)c3nc-2c(C(=O)N[C@@H]2C(=O)N[C@H](C(C)C)C(=O)N3CCC[C@H]3C(=O)N(C)CC(=O)N(C)[C@@H](C(C)C)C(=O)O[C@H]2C)c(N)c1=O (I: [aThr][dV]P[Sar][NMeV] / II: [aThr][dV]P[Sar][NMeV]; ester I:1-I:C, II:1-II:C; linker I:N-II:N via Actinocin(9to1))
- survivor count (dose: 1.0 mg/kg/injection, schedule: Q04DX003 (ip), vehicle: saline): 0 of 6 on day 10
- survivor count (dose: 2.0 mg/kg/injection, schedule: Q01DX001 (ip), vehicle: saline): 0 of 6 on day 10
- survivor count (dose: 2.0 mg/kg/injection, schedule: Q04DX003 (ip), vehicle: saline): 6 of 6 on day 14
- survivor count (dose: 3.0 mg/kg/injection, schedule: Q04DX003 (ip), vehicle: saline): 6 of 6 on day 14
- survivor count (dose: 200.0 micrograms/kg/injection, schedule: Q01DX005 (ip), vehicle: saline): 0 of 6 on day 10
- survivor count (dose: 200.0 micrograms/kg/injection, schedule: Q01DX015 (ip), vehicle: saline): 1 of 5 on day 10

Compound: CC(C)(C[NH-])C[NH-].[Cl][Pt+2][Cl]
- T/C (dose: 0.75 mg/kg/injection, schedule: Q04DX003 (ip), vehicle: water): 136 % of control
- T/C (dose: 1.5 mg/kg/injection, schedule: Q04DX003 (ip), vehicle: water): 127 % of control
- T/C (dose: 3.0 mg/kg/injection, schedule: Q04DX003 (ip), vehicle: water): 135 % of control
- survivor count (dose: 6.0 mg/kg/injection, schedule: Q04DX003 (ip), vehicle: water): 6 of 6 on day 10
- T/C (dose: 12.0 mg/kg/injection, schedule: Q04DX003 (ip), vehicle: water): 131 % of control [4 of 6 alive on day 10]

Compound: CN(Cc1cnc2nc(N)nc(N)c2n1)c1ccc(C(=O)N[C@@H](CCC(=O)O)C(=O)O)cc1
- T/C (dose: 0.75 mg/kg/injection, schedule: Q01DX015 (ip), vehicle: sodium bicarbonate): 125 % of control
- survivor count (dose: 6.0 mg/kg/injection, schedule: Q01DX015 (ip), vehicle: sodium bicarbonate): 6 of 6 on day 10
- T/C (dose: 80.0 mg/kg/injection, schedule: Q04DX003 (ip), vehicle: sodium bicarbonate): 140 % of control
- T/C (dose: 160.0 mg/kg/injection, schedule: Q04DX003 (ip), vehicle: sodium bicarbonate): 138 % of control [5 of 6 alive on day 10]
- T/C (dose: 400.0 mg/kg/injection, schedule: Q01DX001 (ip), vehicle: sodium bicarbonate): 142 % of control

Compound: CCCSc1nc(COC(=O)NC)c(COC(=O)NC)n1C
- survivor count (dose: 480.0 mg/kg/injection, schedule: Q04DX003 (ip), vehicle: saline): 0 of 6 on day 10

Compound: C=C(c1ccc(OC)c(OC)c1)c1nccc2cc(OC)c(OC)cc12
- survivor count [1]: 3 of 6 on day 10
- survivor count (dose: 1200.0 mg/kg/injection, schedule: Q04DX003 (ip), vehicle: Klucel (hydroxypropylcellulose) (HPC)): 1 of 6 on day 10

Compound: CNC(=O)/C=C/C1=CN2C(=O)c3ccc(C)c(O)c3NC(OC)C2C1 (centres undefined)
- T/C (dose: 50.0 micrograms/kg/injection, schedule: Q04DX003 (ip), vehicle: saline): 132 % of control
- T/C (dose: 100.0 micrograms/kg/injection, schedule: Q04DX003 (ip), vehicle: saline): 132 % of control
- survivor count (dose: 400.0 micrograms/kg/injection, schedule: Q04DX003 (ip), vehicle: saline): 3 of 6 on day 10
- survivor count (dose: 800.0 micrograms/kg/injection, schedule: Q04DX003 (ip), vehicle: saline): 3 of 6 on day 10

Compound: Clc1cccc(Cl)c1C(Nc1nncs1)Nc1nncs1
- T/C (dose: 200.0 mg/kg/injection, schedule: Q04DX003 (ip), vehicle: saline with Tween-80): 126 % of control
- survivor count (dose: 400.0 mg/kg/injection, schedule: Q04DX003 (ip), vehicle: saline with Tween-80): 1 of 6 on day 10
- survivor count (dose: 800.0 mg/kg/injection, schedule: Q04DX003 (ip), vehicle: saline with Tween-80): 0 of 6 on day 10

Compound: c1ccc2c3c(c4c(c2c1)CN(C1CCCCC1)CO4)OCN(C1CCCCC1)C3
- survivor count (dose: 150.0 mg/kg/injection, schedule: Q04DX003 (ip), vehicle: water): 6 of 6 on day 10
- survivor count (dose: 300.0 mg/kg/injection, schedule: Q04DX003 (ip), vehicle: water): 0 of 6 on day 10

Compound: C/C(=N\NC(=S)N1CCN(c2ccccn2)CC1)c1ccccn1
- survivor count (dose: 160.0 mg/kg/injection, schedule: Q04DX003 (ip), vehicle: water): 0 of 6 on day 10

Compound: COc1cc2c(c(OC)c1O)-c1ccc(OC)c(=O)cc1[C@@H](NC(=O)C(F)(F)F)CC2
- T/C (dose: 5.0 mg/kg/injection, schedule: Q04DX003 (ip), vehicle: Klucel (hydroxypropylcellulose) (HPC)): 139 % of control
- T/C (dose: 10.0 mg/kg/injection, schedule: Q04DX003 (ip), vehicle: Klucel (hydroxypropylcellulose) (HPC)): 133 % of control
- T/C (dose: 20.0 mg/kg/injection, schedule: Q04DX003 (ip), vehicle: Klucel (hydroxypropylcellulose) (HPC)): 133 % of control
- T/C (dose: 40.0 mg/kg/injection, schedule: Q04DX003 (ip), vehicle: Klucel (hydroxypropylcellulose) (HPC)): 126 % of control [4 of 6 alive on day 10]

Compound: CC1=C[P+](c2ccccc2)(c2ccccc2)C=C(c2ccccc2)O1
- T/C (dose: 0.75 mg/kg/injection, schedule: Q04DX003 (ip), vehicle: saline): 125 % of control
- T/C (dose: 1.5 mg/kg/injection, schedule: Q04DX003 (ip), vehicle: saline): 129 % of control
- T/C (dose: 6.0 mg/kg/injection, schedule: Q04DX003 (ip), vehicle: saline): 134 % of control

Compound: O=C(Nc1cc(Cl)ccc1C(=O)O)c1cccc(C[n+]2ccccc2)c1
- survivor count (dose: 150.0 mg/kg/injection, schedule: Q04DX003 (ip), vehicle: saline with Tween-80): 5 of 6 on day 10 and 6 of 6 on day 10
- survivor count (dose: 300.0 mg/kg/injection, schedule: Q04DX003 (ip), vehicle: saline with Tween-80): 6 of 6 on day 10
- survivor count (dose: 600.0 mg/kg/injection, schedule: Q04DX003 (ip), vehicle: saline with Tween-80): 0 of 6 on day 10

Compound: O=NNc1ccc(Cl)cn1
- T/C (dose: 12.5 mg/kg/injection, schedule: Q04DX003 (ip), vehicle: water): 133 % of control
- T/C (dose: 25.0 mg/kg/injection, schedule: Q04DX003 (ip), vehicle: water): 144 % of control
- T/C (dose: 40.0 mg/kg/injection, schedule: Q04DX003 (ip), vehicle: water): 125 % of control
- T/C (dose: 50.0 mg/kg/injection, schedule: Q04DX003 (ip), vehicle: water): 145 % of control

Compound: [Cl][Hg][Cl]
- survivor count (dose: 1.25 mg/kg/injection, schedule: Q04DX003 (ip), vehicle: saline): 5 of 6 on day 10
- survivor count (dose: 2.5 mg/kg/injection, schedule: Q04DX003 (ip), vehicle: saline): 6 of 6 on day 10
- survivor count (dose: 5.0 mg/kg/injection, schedule: Q04DX003 (ip), vehicle: saline): 6 of 6 on day 10
- survivor count (dose: 10.0 mg/kg/injection, schedule: Q04DX003 (ip), vehicle: saline): 0 of 6 on day 10
